According to PubChem BioAssay AID624291 (National Center for Advancing Translational Sciences (NCATS), 2012):
Out of some 350,000 compounds screened, about 220 (0.063%) were called active. The shares of active, inactive and inconclusive entries below differ from those in the screen. The call rests on the fitted dose curve; in most records, active means well fitted activation curve with a large enough effect; inconclusive means small, poorly fitted or top-dose-only effect; inactive means no such curve, though single readings can be large or run the other way. Potencies beside an inconclusive call are fits to weak or partial responses and may not hold up.

Experiment: qHTS for Activators of Integrin-Mediated Alleviation for Muscular Dystrophy; further: nearly all actives have a fitted effect of over 60% in size;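 on activation: 100% = response of the positive control SU9516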
Settings: alpha7betagal myoblasts, beta-gal FDG fluorescence, 48 h; activation: at 38.3 µM (top of the series)
Procedure, shortened: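 alpha7betagal+/- myoblasts (passage 13, 250/well) treated 48 h at 37C with compounds at 1:260 dilution of DMSO stock. Lysed, then beta-galactosidase activity read as FDG fluorescence (ex 480/em 540) after 30 min, with pre-read for autofluorescence.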
Potency means the concentration at half of the fitted maximal effect.

| SMILES | Potency | activation |
| --- | --- | --- |
| Cc1ccc(-n2c(SCC(=O)Nc3cccc(S(N)(=O)=O)c3)nc3ccccc32)cc1 | inactive |  |
| CCN(CC)c1ccc(/C=N/NC(=O)c2ccccn2)cc1 | inactive |  |
| Cc1onc(-c2ccccc2)c1C(=O)OCCOc1ccccc1F | inconclusive: 5.01 µM [activator, single point] |  |
| O=C(NCc1ccc(F)cc1Cl)C1CCN(S(=O)(=O)N2CCCCC2)CC1 | inconclusive: 2.51 µM [activator, single point] |  |
| O=C(c1c(Cl)cccc1Cl)N1CCN(c2ncccn2)CC1 | inconclusive: 3.98 µM [activator, single point] |  |
| O=C(NCCc1ccc(O)cc1)c1ccc(Cl)cc1 | inactive |  |
| Cc1ccc(C(=O)Oc2ccccc2N2C(=O)C3CCC(C)CC3C2=O)cc1 (stereo unspecified) | inactive |  |
| COc1ccccc1NC(=O)c1ccccc1S(=O)(=O)c1ccc([N+](=O)[O-])cc1 | inconclusive: 0.891 µM [activator, partial curve, poor fit] |  |
| Cc1ccccc1CS(=O)(=O)Cc1ccc(C(=O)NC2CCCC2)o1 | inconclusive: 2.24 µM [activator, partial curve, poor fit] |  |
| COc1cccc(C(=O)N/N=C(\C)c2ccc(NC(=O)Cc3ccccc3)cc2)c1OC | inconclusive: 5.01 µM [activator, single point] |  |
| CCCn1cnc2cc(NCc3ccccc3O)ccc21 | inconclusive: 4.47 µM [activator, single point] |  |
| CC(=O)c1ccc(OCc2cc(C(=O)N(C)CC3COc4ccccc4O3)no2)cc1 (stereo unspecified) | inactive |  |
| CNC(=O)CSc1nnc(-c2ccc3c(c2)OCO3)n1C | inconclusive: 8.91 µM [activator, partial curve, poor fit] |  |
| O=Nc1onc(-c2ccc([N+](=O)[O-])cc2)c1NO | inconclusive: 3.16 µM [activator, full curve] |  |
| Clc1ccc(OCCN2CCOCC2)cc1 | inactive |  |
| Cc1ccc(C)c(OCc2cc(C(=O)N3CCN(C(=O)c4ccco4)CC3)no2)c1 | inactive |  |
| N#CC1=C(N)C(C#N)(C#N)[C@H](c2c(F)cccc2F)[C@H]2CC3(CC=C12)OCCO3 |  | inactive: -0.964% [at 7.66 µM] |
| CC(=O)Nc1ccc(N2CCC(C)CC2)c([N+](=O)[O-])c1 | inactive |  |
| Cc1c(C(Nc2ccccn2)c2ccc(Cl)cc2)c(=O)n(-c2ccccc2)n1C (stereo unspecified) | inconclusive: 28.2 µM [activator, single point] |  |
| COc1ccc(OC)c(C(=O)c2coc3ccc(OC)cc23)c1 | inconclusive: 5.01 µM [activator, full curve, poor fit] |  |
| CC(=O)Nc1ccccc1C(=O)N1CCN(Cc2ccc3c(c2)OCO3)CC1 | inconclusive: 5.01 µM [activator, single point] |  |
| Cn1nc(C(=O)NC2CCCCC2)c2c1-c1ccccc1S(=O)(=O)C2 | inactive |  |
| Cn1nnnc1SCC(=O)Nc1ccc(Oc2ccc(Cl)cc2)cc1 | inactive |  |

| SMILES | Potency | activation |
| --- | --- | --- |
| CC(=O)N(c1ccc(Cl)cc1)c1c[nH]c2ccccc12 | inconclusive: 8.91 µM [activator, partial curve, poor fit] |  |
| COC(=O)c1cc(C(=O)CC(C)C)c[nH]1 | inconclusive: 28.2 µM [activator, single point] |  |
| O=S(=O)(NNc1ccc(F)cc1F)c1cccc(Cl)c1 | inconclusive: 3.16 µM [activator, single point] |  |
| COc1cccc(CN2CCNC(=O)C2CC(=O)NC2CCCCC2)c1OC (stereo unspecified) | inconclusive: 2.24 µM [activator, partial curve, poor fit] |  |
| CSc1nc2[nH]c(=O)[nH]c2c(=O)[nH]1 | inconclusive: 28.2 µM [activator, single point] |  |
| CSc1ccc(CN(C)C(=O)c2cccc(S(=O)(=O)N3CCN(Cc4ccccc4)CC3)c2)cc1 | inactive |  |
| O=C(/C=C/NCc1ccc(F)cc1)c1ccccc1 | inconclusive: 5.01 µM [activator, single point] |  |
| COc1cc2ccccc2cc1C(=O)Nc1ccc(N2CCOCC2)cc1 | inconclusive: 0.891 µM [activator, full curve, poor fit] |  |
| COc1ccc(C)cc1NS(=O)(=O)c1ccc2c(c1)N(C)CCO2 | inconclusive: 15.8 µM [activator, single point] |  |
| Cc1cccc(Cn2ccc(N)n2)c1 | inconclusive: 11.2 µM [activator, single point] |  |
| CC(C)CC(=O)Nc1ccc2c(c1)OCO2 | inactive |  |
| O=C(Nc1ccccc1C(F)(F)F)N1CCN(c2ccccn2)CC1 | inactive |  |
| Cc1nn(C)cc1C(C)NC(=O)c1cc(COc2cccc3cnccc23)on1 (stereo unspecified) | inactive |  |
| CN1CCN(CCn2c(=S)[nH]c3ccccc3c2=O)CC1 | inconclusive: 2.82 µM [activator, single point] |  |
| CCCc1cc(=O)oc2cc(C)cc(OCC(=O)Nc3cccnc3)c12 | inconclusive: 3.98 µM [activator, single point] |  |
| CC(CCn1cccn1)NC(=O)c1cc(COc2ccc(F)cc2Cl)on1 (stereo unspecified) | inconclusive: 5.01 µM [activator, single point] |  |
| O=C(NCCCn1ccnc1)c1cc(Br)c(Br)s1 | inconclusive: 5.01 µM [activator, single point] |  |
| COc1ccc2c(c1)CCC1C2CCC2(C)C(O)C(=O)CC12 (stereo unspecified) | inactive |  |
| CCn1c(SCC(=O)Nc2ccccc2Cl)nnc1C1CC1 | inconclusive: 28.2 µM [activator, single point] |  |
| CCOc1cc(C)nc(N2CCN(C3CCCCC3)CC2)n1 | inconclusive: 3.16 µM [activator, partial curve, poor fit] |  |
| CC1CC(C)CN(C(=O)c2cccc(NC(=O)CC3SC(N4CCCCC4)=NC3=O)c2)C1 (stereo unspecified) | inconclusive: 31.6 µM [activator, single point] |  |
| NC(=O)C1(Nc2ccc(Cl)cc2)CCCC1 | inconclusive: 3.16 µM [activator, single point] |  |
| CC(=O)c1ccc(OCCn2c(SCC(=O)O)nc3ccccc32)cc1 | inconclusive: 28.2 µM [activator, single point] |  |

Reformatted as comma-separated lines: entries from further up
SMILES,Potency,activation
Cc1ccc(-n2c(SCC(=O)Nc3cccc(S(N)(=O)=O)c3)nc3ccccc32)cc1,inactive,
CCN(CC)c1ccc(/C=N/NC(=O)c2ccccn2)cc1,inactive,
